Test results as given in article PMC6098150.

By UniProt entry, the sequences of proteins in these tests, tags left out. Where a name states a change or a piece, a line headed by the entry shows the natural chain unless it says otherwise.
UniProt F6UVF8: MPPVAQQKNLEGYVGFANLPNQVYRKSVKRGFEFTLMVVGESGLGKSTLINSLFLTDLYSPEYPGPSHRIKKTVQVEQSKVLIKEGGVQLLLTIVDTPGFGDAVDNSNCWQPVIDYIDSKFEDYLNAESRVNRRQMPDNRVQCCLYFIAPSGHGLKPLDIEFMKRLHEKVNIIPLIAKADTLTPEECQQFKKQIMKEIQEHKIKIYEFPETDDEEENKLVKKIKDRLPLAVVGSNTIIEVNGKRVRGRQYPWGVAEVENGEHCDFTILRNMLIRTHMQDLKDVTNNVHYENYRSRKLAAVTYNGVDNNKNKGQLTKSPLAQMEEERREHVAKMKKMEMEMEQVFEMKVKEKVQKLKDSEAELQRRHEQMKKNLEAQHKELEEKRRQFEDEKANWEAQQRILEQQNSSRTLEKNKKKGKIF
UniProt F6RU57: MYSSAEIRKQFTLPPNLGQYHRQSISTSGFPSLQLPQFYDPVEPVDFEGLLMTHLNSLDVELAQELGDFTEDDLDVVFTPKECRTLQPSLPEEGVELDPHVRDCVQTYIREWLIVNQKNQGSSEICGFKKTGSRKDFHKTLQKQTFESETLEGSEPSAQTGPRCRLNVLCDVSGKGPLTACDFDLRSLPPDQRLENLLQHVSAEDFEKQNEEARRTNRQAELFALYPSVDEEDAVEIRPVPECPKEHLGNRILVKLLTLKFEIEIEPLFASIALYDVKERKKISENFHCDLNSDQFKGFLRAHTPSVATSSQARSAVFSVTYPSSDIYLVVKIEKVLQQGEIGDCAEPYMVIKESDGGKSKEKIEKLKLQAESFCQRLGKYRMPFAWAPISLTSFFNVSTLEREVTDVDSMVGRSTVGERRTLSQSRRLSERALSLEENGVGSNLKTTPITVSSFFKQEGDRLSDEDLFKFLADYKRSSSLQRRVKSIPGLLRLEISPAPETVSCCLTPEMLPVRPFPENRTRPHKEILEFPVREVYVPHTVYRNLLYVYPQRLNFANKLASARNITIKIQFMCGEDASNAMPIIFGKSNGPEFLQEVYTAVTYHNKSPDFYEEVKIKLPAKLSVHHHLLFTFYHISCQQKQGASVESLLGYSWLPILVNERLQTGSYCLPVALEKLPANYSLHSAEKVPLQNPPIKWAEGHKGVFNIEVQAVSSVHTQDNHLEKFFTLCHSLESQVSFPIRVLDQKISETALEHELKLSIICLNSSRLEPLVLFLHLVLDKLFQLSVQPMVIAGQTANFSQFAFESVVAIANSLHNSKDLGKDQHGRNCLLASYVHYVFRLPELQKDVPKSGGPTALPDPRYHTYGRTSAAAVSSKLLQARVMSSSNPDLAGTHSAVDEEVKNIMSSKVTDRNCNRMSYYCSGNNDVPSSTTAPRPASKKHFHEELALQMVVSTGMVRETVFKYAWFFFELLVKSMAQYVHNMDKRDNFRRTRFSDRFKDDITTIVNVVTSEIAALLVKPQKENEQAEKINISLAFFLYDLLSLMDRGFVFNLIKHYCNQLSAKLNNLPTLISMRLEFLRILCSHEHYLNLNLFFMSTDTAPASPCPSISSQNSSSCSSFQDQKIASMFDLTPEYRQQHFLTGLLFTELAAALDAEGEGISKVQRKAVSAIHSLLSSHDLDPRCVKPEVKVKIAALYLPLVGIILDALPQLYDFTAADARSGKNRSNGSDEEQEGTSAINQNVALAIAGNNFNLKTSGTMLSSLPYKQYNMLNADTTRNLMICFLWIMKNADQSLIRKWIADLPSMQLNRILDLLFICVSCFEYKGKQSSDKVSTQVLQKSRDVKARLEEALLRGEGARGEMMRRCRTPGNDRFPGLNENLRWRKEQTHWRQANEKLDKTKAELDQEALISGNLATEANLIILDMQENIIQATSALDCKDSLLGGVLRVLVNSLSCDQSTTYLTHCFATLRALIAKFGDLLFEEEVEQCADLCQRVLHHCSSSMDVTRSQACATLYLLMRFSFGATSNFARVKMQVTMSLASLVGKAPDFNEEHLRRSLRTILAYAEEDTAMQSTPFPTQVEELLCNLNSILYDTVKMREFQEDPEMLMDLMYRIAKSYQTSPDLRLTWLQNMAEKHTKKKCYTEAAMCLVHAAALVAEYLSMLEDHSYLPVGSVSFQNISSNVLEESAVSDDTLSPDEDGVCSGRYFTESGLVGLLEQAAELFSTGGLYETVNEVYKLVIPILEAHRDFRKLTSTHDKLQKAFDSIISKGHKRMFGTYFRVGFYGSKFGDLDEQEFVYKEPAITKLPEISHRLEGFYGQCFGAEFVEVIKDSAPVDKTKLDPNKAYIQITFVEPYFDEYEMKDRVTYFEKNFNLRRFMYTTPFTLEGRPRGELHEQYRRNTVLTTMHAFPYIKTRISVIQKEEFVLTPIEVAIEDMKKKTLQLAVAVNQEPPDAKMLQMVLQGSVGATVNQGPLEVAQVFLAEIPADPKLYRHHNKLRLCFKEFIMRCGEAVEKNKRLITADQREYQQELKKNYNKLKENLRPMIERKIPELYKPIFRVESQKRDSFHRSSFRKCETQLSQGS

What was measured:
[1] = target: Septin 7 (horse (endogenous in equine PBL)) (UniProt F6UVF8); assay: co-IP; immunoprecipitation of endogenous septin 7, DOCK8, ILK or MALT1 from equine PBL lysate on Protein G Sepharose; TBS, 2% CHAPS; overnight at 4 °C; western blot
[2] = target: Dedicator of cytokinesis 8 (horse (endogenous in equine PBL)) (UniProt F6RU57); assay: as above

binding [1]	binding [2]	Substance
binds		Dedicator of cytokinesis 8 (from UniProt F6RU57)
	binds	Septin 7 (from UniProt F6UVF8)

Results are given in words; binding and its absence hold for the method and conditions named. Binding seen in cells or lysates may run through a third protein. Binding calls can cover weak binding; strength is not graded here.
